From publication doi:10.1101/2025.07.16.665076

Amino acid sequences for entries named in this document (tags omitted). A change or cut given only in a name is not applied to a line headed by its entry. Residues count along the entry.
UniProt Q3T0E5: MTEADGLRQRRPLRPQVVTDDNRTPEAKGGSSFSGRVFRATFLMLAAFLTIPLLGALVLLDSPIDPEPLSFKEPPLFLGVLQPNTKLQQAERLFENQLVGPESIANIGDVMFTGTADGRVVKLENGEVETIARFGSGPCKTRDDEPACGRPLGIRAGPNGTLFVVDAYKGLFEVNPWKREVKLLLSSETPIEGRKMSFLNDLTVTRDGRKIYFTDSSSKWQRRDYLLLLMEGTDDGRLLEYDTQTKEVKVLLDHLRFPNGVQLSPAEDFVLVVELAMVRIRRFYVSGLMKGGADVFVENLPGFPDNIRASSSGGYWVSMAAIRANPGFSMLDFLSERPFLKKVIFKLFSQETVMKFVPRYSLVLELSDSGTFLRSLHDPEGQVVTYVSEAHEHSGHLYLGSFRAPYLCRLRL
UniProt Q3MHN2, residues 22-548: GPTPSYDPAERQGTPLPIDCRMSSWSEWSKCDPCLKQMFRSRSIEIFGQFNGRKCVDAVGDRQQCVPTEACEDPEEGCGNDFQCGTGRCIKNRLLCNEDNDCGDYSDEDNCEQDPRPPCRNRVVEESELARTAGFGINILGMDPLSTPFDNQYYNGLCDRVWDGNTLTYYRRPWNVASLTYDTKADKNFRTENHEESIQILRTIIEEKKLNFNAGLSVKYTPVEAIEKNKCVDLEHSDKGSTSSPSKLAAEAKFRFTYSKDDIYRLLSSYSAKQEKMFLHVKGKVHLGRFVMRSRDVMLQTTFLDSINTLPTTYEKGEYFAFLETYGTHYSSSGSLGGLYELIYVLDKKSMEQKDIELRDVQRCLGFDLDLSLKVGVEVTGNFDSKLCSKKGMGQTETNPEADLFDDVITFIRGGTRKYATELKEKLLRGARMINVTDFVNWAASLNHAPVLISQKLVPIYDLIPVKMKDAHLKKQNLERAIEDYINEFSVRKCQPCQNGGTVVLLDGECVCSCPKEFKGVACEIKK
UniProt P12763, residues 19-359: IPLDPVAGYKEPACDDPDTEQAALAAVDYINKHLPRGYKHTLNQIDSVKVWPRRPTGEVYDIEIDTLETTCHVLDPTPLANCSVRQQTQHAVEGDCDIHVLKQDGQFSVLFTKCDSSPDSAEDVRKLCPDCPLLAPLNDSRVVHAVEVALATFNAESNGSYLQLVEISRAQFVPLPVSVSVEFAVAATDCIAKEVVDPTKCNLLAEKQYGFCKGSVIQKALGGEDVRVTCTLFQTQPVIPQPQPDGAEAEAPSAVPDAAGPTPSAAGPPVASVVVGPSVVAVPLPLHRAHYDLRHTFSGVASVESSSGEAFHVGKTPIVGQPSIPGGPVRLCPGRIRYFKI
UniProt Q3SX14: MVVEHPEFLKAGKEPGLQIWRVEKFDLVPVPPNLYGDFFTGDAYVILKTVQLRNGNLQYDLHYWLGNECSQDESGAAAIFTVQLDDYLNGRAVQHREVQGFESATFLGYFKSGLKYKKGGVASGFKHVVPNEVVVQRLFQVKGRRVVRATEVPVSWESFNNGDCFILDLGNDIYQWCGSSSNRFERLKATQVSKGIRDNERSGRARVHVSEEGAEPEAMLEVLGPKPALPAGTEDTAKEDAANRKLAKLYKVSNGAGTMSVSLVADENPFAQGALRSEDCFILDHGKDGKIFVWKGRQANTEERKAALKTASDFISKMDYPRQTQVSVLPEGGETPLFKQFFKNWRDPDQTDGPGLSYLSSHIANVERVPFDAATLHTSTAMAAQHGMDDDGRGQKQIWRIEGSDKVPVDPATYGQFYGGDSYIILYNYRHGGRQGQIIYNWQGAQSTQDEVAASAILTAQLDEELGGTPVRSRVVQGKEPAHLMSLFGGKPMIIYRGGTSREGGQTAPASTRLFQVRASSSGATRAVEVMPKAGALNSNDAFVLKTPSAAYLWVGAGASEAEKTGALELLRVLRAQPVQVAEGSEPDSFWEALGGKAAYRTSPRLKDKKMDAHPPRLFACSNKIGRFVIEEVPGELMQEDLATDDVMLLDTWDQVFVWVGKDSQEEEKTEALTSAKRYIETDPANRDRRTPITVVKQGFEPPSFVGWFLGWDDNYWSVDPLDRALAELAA

Target: T1, His-ALFA-SAA1-N terminus (SAA1-N) (human) (UniProt P0DJI8)
T1 sequence: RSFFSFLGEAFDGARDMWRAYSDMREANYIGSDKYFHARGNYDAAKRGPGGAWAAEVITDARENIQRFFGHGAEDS
Assay: affinity purification with mass spectrometry

| Substance | binding |
| --- | --- |
| COL18A1 (bovine plasma) | binds |
| APMAP (bovine plasma) (from UniProt Q3T0E5) | binds |
| C9 (bovine plasma) (from UniProt Q3MHN2 22-548) | binds |
| VTN (bovine plasma) | binds |
| COL6A3 (bovine plasma) | binds |
| SERPINA10 (bovine plasma) | binds |
| SERPIND1 (bovine plasma) | binds |

Next, values leading:

| binding | Substance |
| --- | --- |
| binds | clusterin (bovine plasma) |
| binds | AHSG (bovine plasma) (from UniProt P12763 19-359) |
| binds | GSN (bovine plasma) (from UniProt Q3SX14 1-731) |
| binds | APOB (bovine plasma) |

These are yes or no findings as the source states them, for the method shown. In cells and extracts the contact can be indirect. Here binding means that the protein was enriched with, or labelled near, the bait; the list need not be complete. Tags and fused reporters may be left off the sequences shown.
